PubChem BioAssay AID686938 | Drosophila RNAi Screening Center – 2013
Screen: 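Fly genes required for calcium entry once internal stores are emptied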 (primary screen). System: Drosophila S2R+ cells. Knock-down reagent: long dsRNA against Drosophila genes, about 0.25 µg dsRNA per well, roughly 10,000 cells. Timing: 5 days of knock-down before the calcium assay. Treatment: thapsigargin (SERCA pump blocker) to empty calcium stores; entry signal taken 4 min after adding it. Detection: 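Duplicate raw fluo-4 intensities per well from a plate reader, at rest and four minutes after thapsigargin emptied calcium stores; entry-to-rest ratio filled for only some wells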. Scale: calcium entry signal: higher = stronger calcium signal after store depletion; resting calcium signal: higher = higher resting calcium signal. Call rule: 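Hit if the duplicate-averaged plate z-score for entry over resting signal is under −3; wells with weak total dye signal (Fmax z < −2) or more than 5 off-targets removed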. Meaning of the calls: active = strongly reduced calcium entry; inactive = no strong reduction.
The deposit covers about 23,000 reagents; below is an unselected part of those that have a named target and a result. Of all reagents, 75 (0.33%) are marked active. 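Raw plate signals without normalisation; calls rest on plate z-scores that were not deposited; ratio present for only 364 wells.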 Unmarked entries are inactive. The numbers tell different reagents against one gene apart. The record does not give: the dose of the treatment.

gene | reagent | calcium entry signal, replicate 1 (fluorescence units) | calcium entry signal, replicate 2 (fluorescence units) | resting calcium signal, replicate 1 (fluorescence units) | resting calcium signal, replicate 2 (fluorescence units)
aly (always early) | 1 | 4.01e7 | 4.32e7 | 2.20e7 | 2.05e7
aly (always early) | 2 | 3.37e7 | 4.03e7 | 1.86e7 | 1.91e7
Elp6 (Elongator complex protein 6) | 1 | 3.99e7 | 4.82e7 | 1.58e7 | 2.14e7
CG34056 | 1 | 1.98e7 | 3.24e7 | 1.07e7 | 1.46e7
Wnt10 (Wnt oncogene analog 10) | 1 | 1.72e7 | 4.13e7 | 1.47e7 | 1.65e7
Wnt10 (Wnt oncogene analog 10) | 2 | 4.14e7 | 4.28e7 | 1.92e7 | 1.84e7
unc-5 | 1 | 4.63e7 | 4.07e7 | 2.21e7 | 1.79e7
unc-5 | 2 | 3.76e7 | 3.92e7 | 1.97e7 | 1.88e7
unc-5 | 3 | 3.33e7 | 3.35e7 | 1.83e7 | 1.61e7
CG14947 | 1 | 3.44e7 | 2.24e7 | 1.47e7 | 1.05e7
CG13921 | 1 | 3.97e7 | 3.63e7 | 1.77e7 | 1.84e7
l(2)41Ab (lethal (2) 41Ab) | 1 | 5.17e7 | 4.01e7 | 2.28e7 | 1.85e7
CG13113 | 1 | 3.08e7 | 4.46e7 | 1.41e7 | 1.71e7
AANATL5 (Arylalkylamine N-acetyltransferase-like 5) | 1 | 4.26e7 | 5.48e7 | 1.80e7 | 2.49e7
Try29F (Trypsin 29F) | 1 | 2.51e7 | 3.10e7 | 1.14e7 | 1.34e7
Rab40 | 1 | 4.92e7 | 4.76e7 | 2.22e7 | 2.41e7
CG17294 | 1 | 4.74e7 | – | 2.17e7 | –
CG31230 | 1 | 1.83e7 | 3.03e7 | 9.62e6 | 1.62e7
CG16800 | 1 | 4.49e7 | 3.37e7 | 1.90e7 | 1.64e7
CG3294 | 1 | 3.26e7 | – | 1.84e7 | –
CheA46a (Chemosensory protein A 46a) | 1 | 3.40e7 | 4.76e7 | 1.69e7 | 2.23e7
CG8750 | 1 | 3.11e7 | 4.36e7 | 1.67e7 | 1.90e7
B4 | 1 | 3.82e7 | – | 1.97e7 | –
B4 | 2 | 3.55e7 | 2.45e7 | 1.60e7 | 1.20e7
Atxn7 (Ataxin 7) | 1 | 4.31e7 | – | 2.63e7 | –
Atxn7 (Ataxin 7) | 2 | 3.72e7 | 2.89e7 | 2.24e7 | 1.47e7
CG4610 | 1 | 3.45e7 | 3.67e7 | 1.77e7 | 1.70e7
CG4610 | 2 | 3.42e7 | 2.52e7 | 1.71e7 | 1.13e7
CG30355 | 1 | 3.55e7 | 6.75e7 | 1.77e7 | 3.09e7
CG43295 | 1 | 3.66e7 | 3.85e7 | 1.65e7 | 1.83e7
lncRNA:CR31526 (long non-coding RNA:CR31526) | 1 | 4.21e7 | 4.29e7 | 2.11e7 | 1.87e7
melt (melted) | 1 | 2.04e7 | 3.88e7 | 1.08e7 | 1.77e7
SCCRO (Squamous cell carcinoma-related oncogene) | 1 | 3.07e7 | 2.82e7 | 1.42e7 | 1.28e7
CG14034 | 1 | 3.91e7 | 3.83e7 | 1.88e7 | 1.67e7
kl-3 (retired record) | 1 | 3.47e7 | 3.90e7 | 1.65e7 | 1.68e7
kl-3 (retired record) | 2 | 4.23e7 | 4.52e7 | 2.20e7 | 2.01e7
kl-3 (retired record) | 3 | 4.15e7 | 3.79e7 | 1.75e7 | 1.59e7
Eip63E (Ecdysone-induced protein 63E) | 1 | 4.30e7 | 3.33e7 | 2.66e7 | 1.49e7
Rep (Rab escort protein) | 1 | 3.76e7 | 3.31e7 | 1.80e7 | 1.74e7
lncRNA:CR34047 (long non-coding RNA:CR34047) | 1 | 4.33e7 | 4.68e7 | 2.09e7 | 2.13e7
lncRNA:CR34047 (long non-coding RNA:CR34047) | 2 | 4.66e7 | 3.24e7 | 2.54e7 | 1.57e7
CG16986 | 1 | 4.01e7 | 4.95e7 | 1.93e7 | 2.17e7
Ance (Angiotensin converting enzyme) | 1 | 4.54e7 | – | 2.09e7 | –
CG30414 | 1 | 3.69e7 | 4.83e7 | 1.97e7 | 2.05e7
Cyp6t1 (Cytochrome P450 6t1) | 1 | 5.14e7 | 4.55e7 | 2.49e7 | 1.96e7
CG2961 | 1 | 4.05e7 | 3.85e7 | 1.95e7 | 1.93e7
Papst2 (PAPS transporter 2) | 1 | 2.99e7 | 4.14e7 | 1.30e7 | 2.69e7
CG34115 | 1 | 3.40e7 | 5.12e7 | 1.46e7 | 1.99e7
resilin | 1 | 2.34e7 | 5.24e7 | 1.20e7 | 2.31e7
resilin | 2 | 4.62e7 | 5.05e7 | 1.90e7 | 2.30e7
CG4806 | 1 | 3.84e7 | 2.80e7 | 2.18e7 | 1.55e7
CG18265 | 1 | 4.29e7 | 6.45e7 | 2.02e7 | 2.83e7
Cngl (Cyclic nucleotide-gated ion channel-like) | 1 | 1.79e7 | 2.34e7 | 8.91e6 | 9.84e6
Cngl (Cyclic nucleotide-gated ion channel-like) | 2 | 2.55e7 | 3.00e7 | 1.33e7 | 1.51e7
Cngl (Cyclic nucleotide-gated ion channel-like) | 3 | 1.77e7 | 2.31e7 | 1.14e7 | 1.18e7
Pgls (6-phosphogluconolactonase) | 1 | 3.88e7 | 6.75e7 | 2.00e7 | 3.17e7
ORY (Occludin-Related Y) | 1 | 3.85e7 | 3.19e7 | 1.82e7 | 1.31e7
CG4199 | 1 | 3.02e7 | 3.83e7 | 1.38e7 | 1.65e7
CG4199 | 2 | 3.12e7 | 3.13e7 | 1.62e7 | 1.43e7
